The values that follow come from publication PMC4877585.

No constants are given. Whether binding was seen depends on the method and setting. Binding seen in cells or lysates may run through a third protein. Some binding calls cover weakened binding; strength is not graded here.

The target in the assay is T1, phosphorylated p47^phox (mouse (endogenous in MLVECs)) (UniProt Q09014).
T1 sequence (chain, phosphorylated (detected with anti-phosphoserine antibody); positions not stated): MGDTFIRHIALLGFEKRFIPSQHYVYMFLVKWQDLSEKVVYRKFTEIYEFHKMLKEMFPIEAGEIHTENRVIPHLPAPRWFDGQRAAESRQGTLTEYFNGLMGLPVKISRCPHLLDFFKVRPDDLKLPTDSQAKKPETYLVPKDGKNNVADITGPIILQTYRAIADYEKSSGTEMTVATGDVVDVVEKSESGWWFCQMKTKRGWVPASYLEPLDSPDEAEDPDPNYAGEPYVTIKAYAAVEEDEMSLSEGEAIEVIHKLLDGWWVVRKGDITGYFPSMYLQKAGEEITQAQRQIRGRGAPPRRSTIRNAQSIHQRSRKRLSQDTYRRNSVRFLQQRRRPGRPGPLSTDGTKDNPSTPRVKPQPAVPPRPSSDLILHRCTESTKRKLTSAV
Nature of the assay: co-IP; 600 ug total protein of MLVEC lysate (10 mM Tris pH 7.4, 150 mM NaCl, 5 mM EDTA, 1% Triton X-100) immunoprecipitated with anti-p47^phox antibody, blotted for gp91^phox and phosphoserine; cells treated with 0, 200 or 1500 ng/ml rmCIRP for 4 h or 200 ng/ml rmCIRP for up to 8 h.

B1: gp91^phox (protein, UniProt Q61093 1-570)
chain: MGNWAVNEGLSIFVILVWLGLNVFLFINYYKVYDDGPKYNYTRKLLGSALALARAPAACLNFNCMLILLPVCRNLLSFLRGSSACCSTRIRRQLDRNLTFHKMVAWMIALHTAIHTIAHLFNVEWCVNARVGISDRYSIALSDIGDNENEEYLNFAREKIKNPEGGLYVAVTRLAGITGIVITLCLILIITSSTKTIRRSYFEVFWYTHHLFVIFFIGLAIHGAERIVRGQTAESLEEHNLDICADKIEEWGKIKECPVPKFAGNPPMTWKWIVGPMFLYLCERLVRFWRSQQKVVITKVVTHPFKTIELQMKKKGFKMEVGQYIFVKCPKVSKLEWHPFTLTSAPEEDFFSIHIRIVGDWTEGLFNACGCDKQEFQDAWKLPKIAVDGPFGTASEDVFSYEVVMLVGAGIGVTPFASILKSVWYKYCDNATSLKLKKIYFYWLCRDTHAFEWFADLLQLLETQMQERNNANFLSYNIYLTGWDESQANHFAVHHDEEKDVITGLKQKTLYGRPNWDNEFKTIASEHPNTTIGVFLCGPEALAETLSKQSISNSESGPRGVHFIFNKENF
For B1, the binding result was “binds”.
